These are yes or no findings as the source states them, for the method shown. In cells and extracts the contact can be indirect.
Key:
Experiment in all cases: split reporter; Venus BiFC in HeLa cells co-transfected with VN and VC fusions (0.3 μg of each plasmid), fixed 24 h later; some cells treated 3 h with nocodazole or vinblastine
[1] = biological target: TPPP/p25 ΔN(49) fused to a Venus N-terminal fragment (human) (UniProt O94811)
[2] = biological target: myc-tagged full-length TPPP/p25 fused to VN155(I152L) (human) (UniProt O94811)
[3] = biological target: TPPP/p25 ΔC(158) fused to a Venus N-terminal fragment (human) (UniProt O94811)

Protein sequences, listed by entry. Tags and fused reporters are not part of them. Lines headed by an entry give the natural chain unless they say otherwise; changes in a name come on top. Chains listed by the source or under a name are the forms on record and can include a tag or linker. Residues count along the entry.
UniProt O94811: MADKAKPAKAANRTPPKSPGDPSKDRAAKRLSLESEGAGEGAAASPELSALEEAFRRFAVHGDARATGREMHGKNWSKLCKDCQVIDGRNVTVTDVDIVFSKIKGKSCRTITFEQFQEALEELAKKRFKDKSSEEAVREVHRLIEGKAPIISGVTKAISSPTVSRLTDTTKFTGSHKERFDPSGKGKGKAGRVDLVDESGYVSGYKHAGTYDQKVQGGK
TPPP/p25 ΔC(158) fused to a Venus N-terminal fragment: residues 1-157 of O94811
TPPP/p25 ΔN(49) fused to a Venus N-terminal fragment: residues 50-219 of O94811

Measured: binding

HA-tagged TPPP/p25 core fused to VC155 (from UniProt O94811 50-157) (domain or fragment)
no binding: [1] | [2] | [3]
